PubChem BioAssay AID1259308 – NCATS – 2017
Aim: 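Genes whose loss raises luciferase production in HEK293 cells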 (primary screen). Cell system: human HEK293 embryonic kidney cells stably expressing firefly luciferase (HEK-CMV-Luc2-Hygro). Reagents: single siRNA against human genes, 0.8 pmol siRNA per well. Timing: 72 h. Read-out: 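Luciferase light (ONE-Glo) measured on one replicate plate set and viability (CellTiter-Glo) on the other, scaled to a negative control siRNA, with robust z-scores and luciferase per cell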. Reading the numbers: total luciferase, z-score: higher = more reporter protein produced. Rule for the call: 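An siRNA counts as active if its total luciferase robust z-score exceeds 3; genes with two or more such siRNAs out of three were retested with fresh siRNAs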. Meaning of the calls: active = raised luciferase; inactive = no rise.
In all, the deposit lists about 59,000 reagents; shown is a part drawn at random. In the full data, about 1,510 (2.6%) got an active call. 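Calls use total luciferase alone and ignore viability, so some active siRNAs may act by altering cell number.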 A number with no mark means an inactive call. Further read-outs or replicates are left out here. No sequences are given here.

target gene | PubChem SID | total luciferase, z-score
MTA2 | SID160721752 | 0.405
MTA2 | SID160721754 | 0.133
MTA2 | SID160721755 | 1.88
CD27 | SID160738750 | -0.27
CD27 | SID160738760 | 0.697
CD27 | SID160738771 | 1.51
KCNJ2 | SID160776166 | -0.407
KCNJ2 | SID160776167 | -0.578
KCNJ2 | SID160776168 | -0.712
CAMSAP1 | SID160759572 | -0.373
CAMSAP1 | SID160759573 | -0.356
CAMSAP1 | SID160759574 | -0.505
POLD4 | SID160746724 | -2.05
POLD4 | SID160746725 | -1.26
POLD4 | SID160746726 | -0.326
CNDP1 | SID160732036 | -2.13
CNDP1 | SID160752664 | -0.693
CNDP1 | SID160752665 | -2.41
KIAA2012-AS1 | SID160734495 | -0.0773
KIAA2012-AS1 | SID160772552 | 0.32
KIAA2012-AS1 | SID160772555 | 0.854
IER3IP1 | SID160740122 | 1.46
IER3IP1 | SID160740123 | -0.0964
IER3IP1 | SID160740124 | -0.318
CPB2 | SID160747332 | -0.226
CPB2 | SID160747342 | -0.898
CPB2 | SID160747352 | -0.564
LY6G6C | SID160750508 | -1.36
LY6G6C | SID160750509 | -0.213
LY6G6C | SID160750510 | 2.15
CCDC124 | SID160732350 | 1.44
CCDC124 | SID160755143 | -0.467
CCDC124 | SID160755144 | 2.29
PCDHGB1 | SID160744771 | 0.617
PCDHGB1 | SID160744772 | -2.24
PCDHGB1 | SID160744775 | 2.09

6 entries from above in another layout.
CD27 [SID160738750] | total luciferase, z-score = -0.27
CD27 [SID160738760] | total luciferase, z-score = 0.697
CD27 [SID160738771] | total luciferase, z-score = 1.51
KCNJ2 [SID160776166] | total luciferase, z-score = -0.407
KCNJ2 [SID160776167] | total luciferase, z-score = -0.578
KCNJ2 [SID160776168] | total luciferase, z-score = -0.712

Further records:
target gene | PubChem SID | total luciferase, z-score
ZFHX4 | SID160749408 | -1.02
ZFHX4 | SID160749409 | -1.32
ZFHX4 | SID160749410 | 0
TMEM25 | SID160735123 | -1.19
TMEM25 | SID160752805 | -0.65
TMEM25 | SID160752807 | 0.599
APAF1 | SID160718064 | 0.435
APAF1 | SID160718075 | 0.376
APAF1 | SID160718085 | -1.28
PTHLH | SID160715324 | 0.158
PTHLH | SID160715325 | 5.01 (active)
PTHLH | SID160715326 | 1.73
UTP14C | SID160722907 | 1.65
UTP14C | SID160722908 | -0.426
UTP14C | SID160722909 | -0.0282
PLEKHA1 | SID160746989 | 0.429
PLEKHA1 | SID160746990 | -1.72
PLEKHA1 | SID160746991 | -1.17
TNFSF12 | SID160720719 | -0.938
TNFSF12 | SID160720720 | 0.0852
TNFSF12 | SID160720721 | -0.0391
